The results in this text go back to publication PMC10067937.

Chains of the proteins cited; added tags and fusions are not shown.
UniProt Q92508: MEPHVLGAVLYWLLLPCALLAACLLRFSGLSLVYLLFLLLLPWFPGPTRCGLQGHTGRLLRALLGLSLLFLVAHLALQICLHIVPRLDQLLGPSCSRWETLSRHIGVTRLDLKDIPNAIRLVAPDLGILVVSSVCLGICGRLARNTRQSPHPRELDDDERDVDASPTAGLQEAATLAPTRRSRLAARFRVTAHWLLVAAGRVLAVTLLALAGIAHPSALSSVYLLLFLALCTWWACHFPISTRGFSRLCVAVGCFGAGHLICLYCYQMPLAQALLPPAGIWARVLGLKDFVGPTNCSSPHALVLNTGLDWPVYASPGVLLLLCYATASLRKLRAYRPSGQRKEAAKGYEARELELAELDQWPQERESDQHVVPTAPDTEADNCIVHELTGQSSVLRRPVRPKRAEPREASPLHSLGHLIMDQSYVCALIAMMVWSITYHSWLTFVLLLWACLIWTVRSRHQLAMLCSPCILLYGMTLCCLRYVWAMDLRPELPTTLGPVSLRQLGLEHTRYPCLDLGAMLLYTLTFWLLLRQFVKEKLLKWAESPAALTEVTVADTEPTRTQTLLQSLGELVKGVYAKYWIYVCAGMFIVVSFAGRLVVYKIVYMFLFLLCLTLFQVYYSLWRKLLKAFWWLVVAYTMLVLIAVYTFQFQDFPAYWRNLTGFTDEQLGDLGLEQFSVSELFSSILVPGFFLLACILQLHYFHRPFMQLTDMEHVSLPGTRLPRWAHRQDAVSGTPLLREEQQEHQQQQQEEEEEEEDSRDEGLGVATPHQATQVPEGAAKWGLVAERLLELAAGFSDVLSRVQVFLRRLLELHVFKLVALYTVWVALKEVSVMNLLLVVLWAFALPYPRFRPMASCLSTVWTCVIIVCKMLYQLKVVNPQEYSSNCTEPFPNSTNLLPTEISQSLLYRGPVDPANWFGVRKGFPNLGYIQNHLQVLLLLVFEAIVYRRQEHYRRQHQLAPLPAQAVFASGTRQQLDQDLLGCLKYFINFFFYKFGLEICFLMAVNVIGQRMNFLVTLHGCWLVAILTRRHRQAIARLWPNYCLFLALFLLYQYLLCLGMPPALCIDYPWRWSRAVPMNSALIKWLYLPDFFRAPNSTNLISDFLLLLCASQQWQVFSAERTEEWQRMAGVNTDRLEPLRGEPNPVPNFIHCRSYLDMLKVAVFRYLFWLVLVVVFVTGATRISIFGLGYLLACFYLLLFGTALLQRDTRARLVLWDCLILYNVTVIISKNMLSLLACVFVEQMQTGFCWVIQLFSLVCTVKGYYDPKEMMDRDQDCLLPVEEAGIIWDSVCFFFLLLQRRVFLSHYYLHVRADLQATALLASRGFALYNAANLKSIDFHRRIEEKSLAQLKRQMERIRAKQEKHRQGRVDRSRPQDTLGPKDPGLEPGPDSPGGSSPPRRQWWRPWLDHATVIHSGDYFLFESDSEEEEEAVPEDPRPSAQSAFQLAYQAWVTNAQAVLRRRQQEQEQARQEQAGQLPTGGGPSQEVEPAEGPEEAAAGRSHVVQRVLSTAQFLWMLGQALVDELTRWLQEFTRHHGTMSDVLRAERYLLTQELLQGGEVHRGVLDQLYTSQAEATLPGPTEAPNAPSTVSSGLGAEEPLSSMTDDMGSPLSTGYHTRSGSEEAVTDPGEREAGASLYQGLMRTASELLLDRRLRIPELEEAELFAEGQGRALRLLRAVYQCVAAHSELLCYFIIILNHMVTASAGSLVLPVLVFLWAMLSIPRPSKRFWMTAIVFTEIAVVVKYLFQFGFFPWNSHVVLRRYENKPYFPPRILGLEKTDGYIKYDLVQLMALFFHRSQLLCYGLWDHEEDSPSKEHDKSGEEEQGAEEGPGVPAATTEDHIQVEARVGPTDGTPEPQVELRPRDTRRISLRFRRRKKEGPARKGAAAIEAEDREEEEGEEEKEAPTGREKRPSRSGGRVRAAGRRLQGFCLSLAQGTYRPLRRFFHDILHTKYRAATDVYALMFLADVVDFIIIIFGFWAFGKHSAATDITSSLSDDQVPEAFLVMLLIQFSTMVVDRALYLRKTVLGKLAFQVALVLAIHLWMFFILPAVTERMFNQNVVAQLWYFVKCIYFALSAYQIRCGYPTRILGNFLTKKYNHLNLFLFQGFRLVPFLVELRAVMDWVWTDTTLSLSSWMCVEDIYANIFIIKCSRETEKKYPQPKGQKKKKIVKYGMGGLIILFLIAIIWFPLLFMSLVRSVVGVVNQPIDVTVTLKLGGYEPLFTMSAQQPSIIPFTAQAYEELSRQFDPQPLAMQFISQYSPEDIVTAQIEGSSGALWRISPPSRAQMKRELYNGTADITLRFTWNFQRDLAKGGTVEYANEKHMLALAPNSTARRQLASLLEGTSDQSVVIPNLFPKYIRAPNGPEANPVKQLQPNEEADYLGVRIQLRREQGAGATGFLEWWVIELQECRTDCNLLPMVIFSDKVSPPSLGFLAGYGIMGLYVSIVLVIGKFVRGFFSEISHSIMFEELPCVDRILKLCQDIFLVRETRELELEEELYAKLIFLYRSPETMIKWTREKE

These are yes or no findings as the source states them, for the method shown. In cells and extracts the contact can be indirect. Some entries that bind do so weakly or less than the wild type.

The target of experiment [1] is human PIEZO1-mTurquoise2 (human) (UniProt Q92508). The experiment is described as follows: FRET or BRET; FRET by FLIM of the donor PIEZO1-mTurquoise2 with an acceptor-tagged partner coexpressed in COS-7 cells, fixed with 4% paraformaldehyde; two-photon excitation at 800 nm; peak lifetime of whole cells, cell-cell junctions or non-junctional regions; static dishes, or slides preconditioned 24 h at 10 dyn.cm^-2, 30 min static, then 10 min shear or static. (In general: In BRET a luciferase serves as donor, and the signal depends on an acceptor being close.)

The target of experiment [2] is C-terminal HA-tagged full length human PIEZO1 (T1) (human) (UniProt Q92508). The experiment is described as follows: co-IP; 500 μg lysate of transiently transfected HEK 293 cells (0.5% Nonidet P40 substitute, 10 mM Tris, 150 mM NaCl, 0.5 mM EDTA, pH 7.4) with 1 μg anti-HA (3F10) at 4 °C, Protein G agarose; blots with anti-PECAM1 or anti-CDH5.

B1: CDH5-mVenus (Cadherin-5, VE-cadherin), in COS-7 cells (protein, UniProt P33151 48-784)
chain: DWIWNQMHIDEEKNTSLPHHVGKIKSSVSRKNAKYLLKGEYVGKVFRVDAETGDVFAIERLDRENISEYHLTAVIVDKDTGENLETPSSFTIKVHDVNDNWPVFTHRLFNASVPESSAVGTSVISVTAVDADDPTVGDHASVMYQILKGKEYFAIDNSGRIITITKSLDREKQARYEIVVEARDAQGLRGDSGTATVLVTLQDINDNFPFFTQTKYTFVVPEDTRVGTSVGSLFVEDPDEPQNRMTKYSILRGDYQDAFTIETNPAHNEGIIKPMKPLDYEYIQQYSFIVEATDPTIDLRYMSPPAGNRAQVIINITDVDEPPIFQQPFYHFQLKENQKKPLIGTVLAMDPDAARHSIGYSIRRTSDKGQFFRVTKKGDIYNEKELDREVYPWYNLTVEAKELDSTGTPTGKESIVQVHIEVLDENDNAPEFAKPYQPKVCENAVHGQLVLQISAIDKDITPRNVKFKFILNTENNFTLTDNHDNTANITVKYGQFDREHTKVHFLPVVISDNGMPSRTGTSTLTVAVCKCNEQGEFTFCEDMAAQVGVSIQAVVAILLCILTITVITLLIFLRRRLRKQARAHGKSVPEIHEQLVTYDEEGGGEMDTTSYDVSVLNSVRRGGAKPPRPALDARPSLYAQVQKPPRHAPGAHGGPGEMAAMIEVKKDEADHDGDGPPYDTLHIYGYEGSESIAESLSSLGTDSSDSDVDYDFLNDWGPRFKMLAELYGSDPREELLY
For the molecule B1, the binding entry in experiment [1] is “binds”.

B2: CDH5 coexpressed with PIEZO1 for co-immunoprecipitation (protein, UniProt P33151 48-784)
chain: DWIWNQMHIDEEKNTSLPHHVGKIKSSVSRKNAKYLLKGEYVGKVFRVDAETGDVFAIERLDRENISEYHLTAVIVDKDTGENLETPSSFTIKVHDVNDNWPVFTHRLFNASVPESSAVGTSVISVTAVDADDPTVGDHASVMYQILKGKEYFAIDNSGRIITITKSLDREKQARYEIVVEARDAQGLRGDSGTATVLVTLQDINDNFPFFTQTKYTFVVPEDTRVGTSVGSLFVEDPDEPQNRMTKYSILRGDYQDAFTIETNPAHNEGIIKPMKPLDYEYIQQYSFIVEATDPTIDLRYMSPPAGNRAQVIINITDVDEPPIFQQPFYHFQLKENQKKPLIGTVLAMDPDAARHSIGYSIRRTSDKGQFFRVTKKGDIYNEKELDREVYPWYNLTVEAKELDSTGTPTGKESIVQVHIEVLDENDNAPEFAKPYQPKVCENAVHGQLVLQISAIDKDITPRNVKFKFILNTENNFTLTDNHDNTANITVKYGQFDREHTKVHFLPVVISDNGMPSRTGTSTLTVAVCKCNEQGEFTFCEDMAAQVGVSIQAVVAILLCILTITVITLLIFLRRRLRKQARAHGKSVPEIHEQLVTYDEEGGGEMDTTSYDVSVLNSVRRGGAKPPRPALDARPSLYAQVQKPPRHAPGAHGGPGEMAAMIEVKKDEADHDGDGPPYDTLHIYGYEGSESIAESLSSLGTDSSDSDVDYDFLNDWGPRFKMLAELYGSDPREELLY
Consider B2, for which the binding entry in experiment [2] is “binds”.
